Assay results: PubChem BioAssay AID504834 (National Center for Advancing Translational Sciences (NCATS), 2011)
About 22,000 (6.9%) of roughly 320,000 compounds were called active. The inconclusive results got no clear call from the source; some entries with a clear call stand among them for comparison. The call rests on the fitted dose curve; in most records, active means well fitted inhibition curve with a large enough effect; inconclusive means small, poorly fitted or top-dose-only effect, or another doubt; inactive means no such curve, though single readings can be large or run the other way. Potencies of inconclusive entries are doubtful fits and often do not repeat.

Experiment: Primary qHTS for delayed death inhibitors of the malarial parasite plastid, 96 hour incubation
Conditions: P. falciparum luciferase reporter growth; series mostly up to 28.7 µM; activity change, negative = inhibition: at the top concentration
Procedure, shortened: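 Infected RBCs, 2% Hct / 0.05% parasitemia final; luciferase-reporter P. falciparum; cpd 96 h, 37 C, 5% CO2; luciferase detection reagent; luminescence.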
On the % scale 0 is the no-effect control and ±100 the full control effect; potency means the concentration at half of the fitted maximal effect.

SMILES | Potency | activity change, negative = inhibition
Cn1c(=O)n(C)c2cc(S(=O)(=O)NCCOCCO)ccc21 | inconclusive: 9.28 µM [inhibitor, single point] | –
O=C(Nc1ccc(OCC(=O)N2CCOCC2)cc1)c1cc(F)c(F)cc1Cl | – | inactive: -15.8%
CCCSc1nnc(NC(=O)Nc2ccc(C)cc2)s1 | inconclusive: 10.4 µM [inhibitor, partial curve, poor fit] | –
CCn1c(CNc2ccc(OC)cc2)nnc1SCC(=O)Nc1ccc(F)cc1 | inconclusive: 11.7 µM [inhibitor, single point] | –
C=CCOc1ccc(CNc2ccc(NC(=O)CC(C)C)cc2)cc1OC | inconclusive: 9.28 µM [inhibitor, partial curve] | –
COc1ccc(N(CC(C)C)S(=O)(=O)c2nnc(NC(=O)CC(C)C)s2)cc1 | inconclusive: 16.5 µM [inhibitor, single point] | –
O=C(COC(=O)/C=C/C(=O)OCC(=O)Nc1ccccc1F)Nc1ccccc1F | – | inactive: 25.1%
CCOC(=O)N1CCN(C(=O)C2CCCN(S(=O)(=O)c3ccc(F)cc3)C2)CC1 (stereo not given) | – | inactive: -17.6%
Cc1oc(-c2ccccc2Cl)nc1CS(=O)CC(=O)NC1CC1 (stereo not given) | inconclusive: 3.7 µM [inhibitor, partial curve, poor fit] | –
Cc1cc(OCC(=O)NCC2CCC(C(=O)O)CC2)c2c(C)c(C)c(=O)oc2c1 (stereo not given) | inconclusive: 18.5 µM [inhibitor, single point] | –
Cc1ccc(OCC(=O)N(C)CC(=O)Nc2ccc(Cl)c(C(F)(F)F)c2)c([N+](=O)[O-])n1 | – | inactive: 13.7%
CCOC(=O)c1ccc2c(c1)nc(C1CCN(S(=O)(=O)c3cccs3)CC1)n2CC | active: 8.28 µM | –
COc1ccc(N(CC(=O)NCc2ccco2)S(=O)(=O)c2ccccc2)cc1 | active: 6.57 µM | –
Cc1ccc(S(=O)(=O)N2CCCCC2)cc1NC(=O)c1c(-c2ccccc2)noc1C | inconclusive: 11.7 µM [inhibitor, single point] | –
CCN(CC)C(=O)Cn1cc(/C=C(\C#N)C(=O)N2CCN(c3ccccc3)CC2)c2ccccc21 | active: 10.4 µM | –
O=C(NC1CC1)C1CCCN1C(=O)NC1CCCCC1 (stereo not given) | inconclusive: 0.465 µM [inhibitor, partial curve, poor fit] | –
Cc1cc(=O)[nH]c(SCC(=O)Nc2c(C)n(C)n(-c3ccccc3)c2=O)n1 | – | inactive: -12%
COc1cccc(OCC(=O)N2CCN(C)CC2)c1 | – | inactive: -12.2%
O=C(CSc1nc2ccccc2s1)NNC(=S)Nc1ccc(Cl)cc1 | inconclusive: 18.5 µM [inhibitor, single point] | –
CC1CCN(c2ccc(C(F)(F)F)cc2N)CC1 | – | inactive: -3.25%

Whole records, quoted from the list:
`CC1CCN(c2ccc(C(F)(F)F)cc2N)CC1` as listed: activity change, negative = inhibition: inactive: -3.25%
`O=C(Nc1ccc(OCC(=O)N2CCOCC2)cc1)c1cc(F)c(F)cc1Cl` as listed: activity change, negative = inhibition: inactive: -15.8%
